According to article PMC7862700:
The entries are a selection whose mix differs from that of the whole data set. For some of these results: At the low end of the ranking the order means little. The list shows a part of the results. For some of these results: Construct or isoform of the protein are uncertain.

How the values were obtained:
[1] = biological target: T1, ETS1 (UniProt P14921); experiment: DAPPL (digital affinity profiling via proximity ligation, sequencing); details: 10 mM Tris-HCl pH 7.5, 50 mM NaCl, 1 mM DTT, 4% glycerol, room temperature, 30 min; GST-TFs on glutathione beads, 16-mer random dsDNA library, 0.1% …; high values mean tight binding; double strand, one strand shown; scale: fold enrichment (6-mer frequency, TF over GST control)
T1 sequence: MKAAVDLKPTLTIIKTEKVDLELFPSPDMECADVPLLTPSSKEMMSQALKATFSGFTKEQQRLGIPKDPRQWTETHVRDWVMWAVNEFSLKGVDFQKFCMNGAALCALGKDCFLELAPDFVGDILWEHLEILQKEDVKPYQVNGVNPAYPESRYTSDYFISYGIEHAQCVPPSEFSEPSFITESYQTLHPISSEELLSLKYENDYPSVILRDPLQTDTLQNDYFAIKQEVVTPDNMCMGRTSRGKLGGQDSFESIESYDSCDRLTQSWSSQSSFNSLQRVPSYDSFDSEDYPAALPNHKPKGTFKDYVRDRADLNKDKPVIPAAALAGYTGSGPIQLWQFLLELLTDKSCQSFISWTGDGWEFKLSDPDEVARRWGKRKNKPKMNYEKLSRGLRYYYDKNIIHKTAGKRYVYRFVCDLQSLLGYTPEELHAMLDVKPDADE

[2] = biological target: T2, SPDEF (UniProt O95238); experiment: as above; details: 10 mM Tris-HCl pH 7.5, 50 mM NaCl, 1 mM DTT, 4% glycerol, room temperature, 30 min; GST-TFs on glutathione beads, 16-mer random dsDNA library, 0.1% …; high values mean tight binding; double strand, one strand shown; scale: fold enrichment (6-mer frequency, TF over GST control)
T2 sequence: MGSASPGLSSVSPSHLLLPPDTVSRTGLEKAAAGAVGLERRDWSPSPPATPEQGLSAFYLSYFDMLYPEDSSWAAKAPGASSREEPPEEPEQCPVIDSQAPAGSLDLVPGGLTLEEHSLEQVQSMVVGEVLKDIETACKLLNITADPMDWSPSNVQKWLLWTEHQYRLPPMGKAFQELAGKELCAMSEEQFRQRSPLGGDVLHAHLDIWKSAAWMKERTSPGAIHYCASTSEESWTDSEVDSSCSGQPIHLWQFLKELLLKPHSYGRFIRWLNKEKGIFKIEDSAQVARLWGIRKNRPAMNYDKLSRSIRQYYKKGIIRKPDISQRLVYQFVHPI

Row | Sequence | binding signal [1] | binding signal [2]
1 | TTACAT | 1.39 | 1.41
2 | CATCGC | 1.12 | 0.992
3 | CTACCC | 1.37 | 1.29
4 | CGCTTA | 1.13 | 1.3
5 | ATAGCG | 0.927 | 0.899
6 | TACGGT | 0.947 | 1.1
7 | GGGGCT | 1.04 | 0.989
8 | TCACCT | 1.24 | 1.22
9 | TGGCGC | 0.848 | 0.911
10 | CACGAT | 1.33 | 1.26
11 | AACTGA | 1.22 | 0.995
12 | GCGCCT | 1.12 | 0.946
13 | TGAGCT | 1 | 0.99
14 | GATCAA | 0.97 | 1.05
15 | TTCGAG | 1.39 | 1.19
16 | GTTCTG | 1.07 | 1
17 | TGCGTC | 1.03 | 0.98
18 | ACCTTC | 1.9 | 2.02
19 | ACGCTC | 0.992 | 0.885
20 | TCTGTA | 1.28 | 1.26
21 | AATCAC | 1.15 | 1.05

Row | Sequence | binding signal [1] | binding signal [2]
22 | GAAACA | 1.3 | 1.3
23 | TAATAC | 1.19 | 1.12
24 | CCAAAG | 0.888 | 0.894
25 | TACTAT | 1.34 | 1.37
26 | ATGAAG | 1.04 | 1.07
27 | GCACAT | 1.14 | 1.28
28 | AAAAAC | 1.34 | 1.23
29 | GCTGGT | 1.13 | 1.2
30 | AACGCG | 0.952 | 0.996
31 | CTGGGC | 1.14 | 1
32 | TCTTTC | 1.29 | 1.44
33 | CCATCA | 1.16 | 1.12
34 | AGTATT | 1.29 | 1.05
35 | GTCACT | 1.08 | 0.979
36 | CATGGG | 1.02 | 0.98
37 | GTCTAA | 1.05 | 0.975
38 | TCTCGT | 1.32 | 1.15
39 | TTTAGT | 1.06 | 1.04
40 | AAGGGT | 1.02 | 0.923
41 | GACTTT | 1.21 | 0.989

Single records, as listed above.
GAAACA is entered as binding signal [1] = 1.3; binding signal [2] = 1.3
AAGGGT is entered as binding signal [1] = 1.02; binding signal [2] = 0.923
